Results reported in paper PMC9712689.
Results are given in words; binding and its absence hold for the method and conditions named.

B1: RlpA-Δ32 (domain or fragment, UniProt Q9X6V6 32-342)
chain: PQQPARQAGISGPGDYSRPHRDGAPWWDVDVSRIPDAVPMPHNGSVKANPYTVLGKTYYPMNDARAYRMVGTASWYGTKFHGQATANGETYDLYGMTAAHKTLPLPSYVRVTNLDNGKSVIVRVNDRGPFYSDRVIDLSFAAAKKLGYAETGTARVKVEGIDPVQWWAQRGRPAPMVLAQPKQAVAQAAPAAAQTQAVAMAQPIETYTPPPAQHAAAVLPVQIDSKKNASLPADGLYLQVGAFANPDAAELLKAKLSGVTAAPVFISSVVRNQQILHRVRLGPIGSADEVSRTQDSIRVANLGQPTLVRPD
B2: RlpA-Δ81 (domain or fragment, UniProt Q9X6V6 82-342)
chain: YTVLGKTYYPMNDARAYRMVGTASWYGTKFHGQATANGETYDLYGMTAAHKTLPLPSYVRVTNLDNGKSVIVRVNDRGPFYSDRVIDLSFAAAKKLGYAETGTARVKVEGIDPVQWWAQRGRPAPMVLAQPKQAVAQAAPAAAQTQAVAMAQPIETYTPPPAQHAAAVLPVQIDSKKNASLPADGLYLQVGAFANPDAAELLKAKLSGVTAAPVFISSVVRNQQILHRVRLGPIGSADEVSRTQDSIRVANLGQPTLVRPD

Tests used:
[1] = molecular target: RlpA-Δ32 (P. aeruginosa PAO1) (UniProt Q9X6V6); assay: SEC + AUC; sedimentation velocity, 42,000 RPM, 20 °C; SEC conditions not shown; both purified
[2] = molecular target: RlpA-Δ81 (P. aeruginosa PAO1) (UniProt Q9X6V6); assay: as above

Binder	binding [1]	binding [2]
B1	no binding	–
B2	–	no binding
